Laboratory results: patent publication US20260117192A1, “METHODS OF PRODUCING A TUMOR AVATAR” (ARIEL SCIENTIFIC INNOVATIONS LTD., priority 2023, published 2026)
For at least one compound, name, drawing or mass did not settle the structure.

Experiments:
Type in all cases: cell-based, human
[1] = tested on: ECM:FM2:ORG co-cultures (TECs:TASCs:Org); assay: Drug cytotoxicity, CellTiter-Glo cell viability and bright field images, organoid-stroma cell co-cultures; conditions: co-culture, targeted drugs, 72 hours (afatinib 0.150 μM, osimertinib 0.8 μM, dasatinib 0.180 μM, gefitinib 3 μM, imatinib 4 μM, capmatinib 8 μM)
Procedure: Organoid-stroma cells co-culture: Initially, organoids were mechanically dissociated into smaller fragments through pipetting, followed by enzymatic digestion into single cells using dispase II at 37° C. for 20 minutes. Concurrently, stroma cells cultured in FM-2, ECM, and MSCM, as well as Huvec cells cultured in ECM, were harvested at 80% confluency in the flask and dissociated using accutase. In certain experiments, after cells dissociation, each cell population was stained with a vital dye before their co-culture. Cells cultured in ECM and Huvec cell lines were stained blue using the CellTrace Violet Dye Proliferation Kit. […] Imaging was performed at 10× magnification using an Olympus Confocal Microscope. Subsequently, dissociated cells were mixed in 35 ul of co-culture medium, at ratios of 1:1:1, 1:4:1, 4:1:1 and 1:1:4 of Huvec or cells cultured in ECM, cells cultured in FM2 and organoids respectively. […]
(§1) Cell viability assay: To assess co-culture growth rates and the cytotoxic effects of various drugs, a luminescent cell viability assay was conducted using the CellTiter-Glo kit from Promega following the manufacturer's guidelines. […] Following treatment, each well containing co-cultures or organoids was lysed using CellTiter-Glo reagents, thoroughly mixed, and incubated for 30 minutes, after which luminescence was measured.

gastric cancer organoids = assay: Drug cytotoxicity, CellTiter-Glo cell viability and bright field images, organoids; conditions: targeted drugs, 72 hours (dasatinib 0.180 μM, gefitinib 3 μM, imatinib 4 μM, capmatinib 8 μM)
Procedure: (§2) Organoids and stroma cells isolation and culture: Human gastric cancer along with surrounding normal tissue were obtained from a consenting patient undergoing surgery at Ichilov Hospital, with approval from the Institutional Review Board. The samples were transported in cold hypothermosol medium and processed within 24 hours post-surgery. Upon acquisition, the tumor tissue was divided into three equal parts for various analyses. One third was snap-frozen for subsequent DNA isolation, another third was fixed in 4% paraformaldehyde for histological examination, and the remaining portion was prepared for cell culture. The tissue underwent digestion using Collagenase I (1 mg/ml), Liberase, and DNAse (10 ug/ml), followed by separation into organoids and stroma cell cultures. Organoids were cultured as previously described hereinbelow, with medium replacement twice weekly and passaging via mechanical and enzymatic dissociation using TrypLE enzyme. […]
as §1

stroma cell monocultures = assay: Drug cytotoxicity, CellTiter-Glo cell viability, stroma cell monocultures; conditions: stroma cells monocultures, targeted drugs, 72 hours (dasatinib 0.180 μM, imatinib 4 μM, capmatinib 8 μM)
Procedure: as §2, §1

SMILES | effect on viability [1] | effect on viability (gastric cancer organoids) | effect on viability (stroma cell monocultures)
CN(C)C/C=C/C(=O)Nc1cc2c(Nc3ccc(F)c(Cl)c3)ncnc2cc1O[C@H]1CCOC1 [afatinib] | resistant | – | –
Cc1nc(Nc2ncc(C(=O)Nc3c(C)cccc3Cl)s2)cc(N2CCN(CCO)CC2)n1 [dasatinib] | cytotoxic effect was diminished | decreased the viability | decreased the viability
